From ChEMBL document CHEMBL3988442, “University of Dundee, Small-Polar-MMV Screening Library” (2021).

Chains of the proteins cited; added tags and fusions are not shown. Residues count along the entry.
UniProt P9WFT3, whole entry: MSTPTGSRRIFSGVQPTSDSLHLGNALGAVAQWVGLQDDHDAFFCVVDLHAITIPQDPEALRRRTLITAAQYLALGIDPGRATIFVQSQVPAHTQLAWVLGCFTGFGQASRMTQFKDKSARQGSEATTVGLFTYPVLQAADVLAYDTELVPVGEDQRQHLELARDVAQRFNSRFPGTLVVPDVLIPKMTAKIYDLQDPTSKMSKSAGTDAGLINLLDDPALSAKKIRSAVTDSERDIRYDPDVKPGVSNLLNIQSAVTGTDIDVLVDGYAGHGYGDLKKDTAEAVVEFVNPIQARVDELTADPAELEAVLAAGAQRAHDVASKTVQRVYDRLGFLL
UniProt P9WNZ1, whole entry: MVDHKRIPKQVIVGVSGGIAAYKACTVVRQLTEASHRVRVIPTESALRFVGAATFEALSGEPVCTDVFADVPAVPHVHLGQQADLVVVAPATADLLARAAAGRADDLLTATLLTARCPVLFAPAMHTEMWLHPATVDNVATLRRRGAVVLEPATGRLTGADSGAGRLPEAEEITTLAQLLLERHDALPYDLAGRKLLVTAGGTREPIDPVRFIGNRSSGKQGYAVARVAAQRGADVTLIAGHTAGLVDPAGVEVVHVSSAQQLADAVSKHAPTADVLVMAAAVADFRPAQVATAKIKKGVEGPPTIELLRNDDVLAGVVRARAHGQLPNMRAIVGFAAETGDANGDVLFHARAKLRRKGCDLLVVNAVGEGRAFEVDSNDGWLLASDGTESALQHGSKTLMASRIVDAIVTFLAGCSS
UniProt A4I591, 1-473: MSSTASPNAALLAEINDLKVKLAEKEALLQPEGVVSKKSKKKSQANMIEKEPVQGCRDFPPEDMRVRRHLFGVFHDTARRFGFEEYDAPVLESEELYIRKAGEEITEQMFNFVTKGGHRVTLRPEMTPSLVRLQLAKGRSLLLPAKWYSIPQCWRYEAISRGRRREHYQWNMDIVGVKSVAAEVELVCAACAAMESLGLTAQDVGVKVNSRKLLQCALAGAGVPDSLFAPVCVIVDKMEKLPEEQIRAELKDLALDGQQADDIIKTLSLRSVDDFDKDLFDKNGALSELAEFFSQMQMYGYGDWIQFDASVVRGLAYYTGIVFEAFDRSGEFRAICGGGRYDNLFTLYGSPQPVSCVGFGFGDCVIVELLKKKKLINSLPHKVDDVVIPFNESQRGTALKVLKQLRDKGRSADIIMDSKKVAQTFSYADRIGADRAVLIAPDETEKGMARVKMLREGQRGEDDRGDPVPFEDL
UniProt I6X8D2, whole entry: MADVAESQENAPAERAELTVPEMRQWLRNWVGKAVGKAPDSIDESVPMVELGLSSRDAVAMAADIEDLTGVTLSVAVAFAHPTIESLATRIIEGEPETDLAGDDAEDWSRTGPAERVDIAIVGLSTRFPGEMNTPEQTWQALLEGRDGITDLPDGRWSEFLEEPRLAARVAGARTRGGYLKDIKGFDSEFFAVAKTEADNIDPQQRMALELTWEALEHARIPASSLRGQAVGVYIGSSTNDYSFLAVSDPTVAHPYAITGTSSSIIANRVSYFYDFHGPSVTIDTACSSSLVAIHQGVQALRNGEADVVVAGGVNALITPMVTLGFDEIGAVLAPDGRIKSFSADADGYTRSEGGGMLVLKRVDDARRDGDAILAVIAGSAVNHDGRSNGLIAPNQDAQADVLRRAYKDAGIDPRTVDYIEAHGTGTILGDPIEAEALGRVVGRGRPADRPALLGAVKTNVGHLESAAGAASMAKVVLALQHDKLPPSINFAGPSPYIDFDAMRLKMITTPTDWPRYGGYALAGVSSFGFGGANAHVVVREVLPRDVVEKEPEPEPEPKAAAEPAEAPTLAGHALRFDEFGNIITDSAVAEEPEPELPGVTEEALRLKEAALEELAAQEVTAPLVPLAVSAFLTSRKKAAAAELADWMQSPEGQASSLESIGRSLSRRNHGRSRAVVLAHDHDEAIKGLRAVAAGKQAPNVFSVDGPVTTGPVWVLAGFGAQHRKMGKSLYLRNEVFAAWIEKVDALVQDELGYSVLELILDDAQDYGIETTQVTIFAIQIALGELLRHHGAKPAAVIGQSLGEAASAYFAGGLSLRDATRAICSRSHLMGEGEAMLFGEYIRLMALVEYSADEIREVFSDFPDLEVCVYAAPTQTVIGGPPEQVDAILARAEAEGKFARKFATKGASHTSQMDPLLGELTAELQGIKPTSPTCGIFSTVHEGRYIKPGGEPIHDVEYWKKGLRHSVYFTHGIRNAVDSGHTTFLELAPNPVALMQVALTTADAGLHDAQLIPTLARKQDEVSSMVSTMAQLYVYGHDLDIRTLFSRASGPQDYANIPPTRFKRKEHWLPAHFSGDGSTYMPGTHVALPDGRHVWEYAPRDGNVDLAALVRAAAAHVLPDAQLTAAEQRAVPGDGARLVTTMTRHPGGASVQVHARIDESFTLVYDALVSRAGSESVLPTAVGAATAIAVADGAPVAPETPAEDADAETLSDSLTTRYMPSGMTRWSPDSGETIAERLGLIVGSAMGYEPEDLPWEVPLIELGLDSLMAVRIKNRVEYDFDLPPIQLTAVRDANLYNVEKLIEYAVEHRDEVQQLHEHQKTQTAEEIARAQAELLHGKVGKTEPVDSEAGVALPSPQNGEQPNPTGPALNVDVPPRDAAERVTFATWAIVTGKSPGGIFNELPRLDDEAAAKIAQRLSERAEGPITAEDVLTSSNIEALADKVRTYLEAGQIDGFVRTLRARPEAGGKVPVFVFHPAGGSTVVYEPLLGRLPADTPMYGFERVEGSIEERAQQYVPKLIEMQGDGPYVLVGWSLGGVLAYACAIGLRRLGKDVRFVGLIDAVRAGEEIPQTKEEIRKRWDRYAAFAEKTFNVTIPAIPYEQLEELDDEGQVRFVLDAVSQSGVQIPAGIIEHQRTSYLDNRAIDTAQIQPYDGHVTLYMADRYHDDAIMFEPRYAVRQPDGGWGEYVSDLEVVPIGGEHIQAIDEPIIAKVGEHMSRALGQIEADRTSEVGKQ

A: 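Tryptophan-tRNA ligase, Mycobacterium tuberculosis (UniProt P9WFT3). Enzyme assay of tryptophanyl-tRNA synthetase; the read-out is not stated. Concentration: 10 µM. Direction is not recorded; retested compounds ran higher, which suggests that high means inhibition. Size under these conditions: about 65,000 compounds, about 64 of them at 50% or above in at least one test.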
B: 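Coenzyme A biosynthesis protein CoaBC, Mycobacterium tuberculosis (UniProt P9WNZ1). Enzyme assay of CoaBC with a phosphate dye (Biomol Green) read at 650 nm. Concentration: 30 µM. Higher reads as stronger inhibition, judged from the few compounds that gave an IC50. Most strong results did not repeat in a second test. About 67,000 compounds were tested under these conditions; 0.06% (about 40) showed 50% or more at least once.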
C: 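Histidine-tRNA ligase, Leishmania infantum (UniProt A4I591). Enzyme assay of histidyl-tRNA synthetase; the read-out is not stated. Tested at 30 µM. Higher reads as stronger inhibition (inferred: compounds with an IC50 in retests scored well above the rest). The assay is labelled LdHisRS but filed under L. infantum. About 69,000 compounds were tested under these conditions; 0.6% (about 410) showed 50% or more at least once.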
D: 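Enzyme assay of the thioesterase domain of polyketide synthase 13; the read-out is not stated. Target: Polyketide synthase Pks13, Mycobacterium tuberculosis (UniProt I6X8D2). Concentration: 30 µM. The record gives no direction; the compounds picked for IC50 retests had high values, so higher reads as stronger inhibition. Of about 67,000 compounds tested this way, about 300 (0.46%) reached 50% or more in at least one test.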

Values are the deposited “Percent Effect”, in %. The controls that fix the scale are not given in the record; negative values are as filed. This is an unselected part of the compounds tested.

O=c1[nH]c(COc2cccc(F)c2)nc2c1CCNC2 read A: 2.633%; B: -2.755%; C: 20.41%; D: -15.15%. Result for CC(=O)N[C@@H]1CN(Cc2ccccc2-n2nc(C)cc2C)C[C@H]1C(C)C was A: 0.2901%; B: -9.504%; C: 5.333%; D: -37.3%. For CNc1ccc(CC2CCCN(C(=O)c3c(C)noc3C)C2)nn1 (stereo not shown) the result was B: 3.398%; C: 7.246%; D: 18.35%. For Cc1cccc(C)c1OCCC(=O)N1CCC(c2nncn2C)CC1 the result was A: 3.917%; B: 4.819%; C: 21.92%; D: -12.97%. For CN(C)c1ccc(CNc2cncc(-n3cccn3)n2)cc1 the result was A: -0.3997%; B: 1.928%; C: 8.219%; D: 27.56%. With Cc1c(C(=O)N2CC(C)(C)C2(C)C)nnn1-c1cccc2cnccc12 the screen gave A: 3.311%; B: -3.365%; C: 10.42%; D: -15.12%. CC(C)Cc1nc(OCC(=O)O)c(C#N)c2c1CCCC2 gave A: 0.719%; B: 0.2545%; C: 12.82%; D: -10.82%. For Cc1nc2c(c(=O)[nH]1)CN(C(=O)CC[C@@H]1CCCN3CCCC[C@H]13)C2 the result was A: -1.633%; B: 2.138%; C: 3.54%; D: -19.42%.

With Cc1cc2ccccc2n1CCC(=O)NCCS(C)(=O)=O the screen gave A: 0.7638%; B: 2.296%; C: 20.99%; D: 0.8573%. With Cc1cc(CN2Cc3ccccc3CC2c2nnc(C)o2)on1 (stereo not shown) the screen gave A: 1.329%; B: 2.821%; C: 13.33%; D: -15.13%. For CC(=O)Nc1ncc(S(=O)(=O)Nc2cccc(F)c2)s1 the result was A: -1.943%; B: -8.545%; C: 5.172%; D: 8.403%. With COc1ccc(Cl)cc1CS(=O)(=O)Cc1cc(C)on1 the screen gave A: -2.457%; B: 2.811%; C: 16.42%; D: -34.32%. For CC1=Nc2c(c(=O)[nH]n2C(C)C)C(c2ccc3ncccc3c2)S1 (stereo not shown) the result was A: -0.3502%; B: -2.02%; C: 7.895%; D: -45.31%. Cc1ccc(N2CCO[C@H]3CN(Cc4nccs4)C[C@H]32)nn1 read A: -0.2292%; B: -5.477%; C: 17.43%; D: -4.471%. For OCCN1CCN(Cc2coc(-c3ccccc3)n2)CC1 the result was A: -7.107%; B: 0.4779%; C: 1.923%; D: -18.02%. With O=C(Cc1cccs1)N1C[C@H]2CN(CC3CCCO3)CC[C@H]2C1 (stereo partly shown) the screen gave A: -1.802%; B: 4.316%; C: 19.35%; D: -15.68%.

Cc1cc(CN2CC[C@H]3OCC[C@@]3(C(=O)NC(C)C)C2)no1 gave A: -5.182%; B: 0.8872%; C: 18.45%; D: -10.37%. O=C(NC1CCCN(c2ccccc2Cl)C1)c1ccc(=O)[nH]n1 (stereo not shown) read A: 3.084%; B: 6.116%; C: 20.41%; D: -6.231%. CN(C)c1ncccc1CNS(=O)(=O)c1cc(F)cc(F)c1 read A: -2.756%; B: 4.779%; C: 11.54%; D: -5.209%. For O=C(CCc1cncc(F)c1)NS(=O)(=O)c1ccc(F)cc1F the result was A: -1.899%; B: 3.502%; C: 9.91%; D: -8.689%. With Cc1cc(N)nc(C2(C)CCCN2C(=O)Cc2ccc(F)cc2)n1 (stereo not shown) the screen gave A: -7.059%; B: 10.26%; C: 13.1%; D: 2.3%. With Cc1cc(C2CCCN2C(=O)CN(C)Cc2ccccc2)no1 (stereo not shown) the screen gave A: -1.923%; B: 0.7371%; C: 0%; D: -19.71%. Cc1ccc(NC2COC3(CCN(Cc4ccn(C)n4)CC3)C2)nn1 (stereo not shown) gave A: 4.36%; C: 11.97%; D: -25.14%. Result for Cc1ccc(CN2C[C@@H]3COC[C@@H](NS(C)(=O)=O)[C@@H]3C2)o1 was A: 2.833%; B: 4.188%; C: 28.3%; D: -22.11%.

CC(NC(N)=O)C(=O)NCc1ccc(Br)c(F)c1 (stereo not shown) read A: 0.5727%; B: -3.289%; C: 22.58%; D: -25.23%. O=C(Cc1ccccn1)N1C[C@@H]2CC[C@H](C1)N(Cc1ccccc1)C2=O read A: -4.567%; B: -6.183%; C: 3.846%.

Repeated from the top, 2 entries:

O=c1[nH]c(COc2cccc(F)c2)nc2c1CCNC2 gave A: 2.633%; B: -2.755%; C: 20.41%; D: -15.15%.
CC(=O)N[C@@H]1CN(Cc2ccccc2-n2nc(C)cc2C)C[C@H]1C(C)C gave A: 0.2901%; B: -9.504%; C: 5.333%; D: -37.3%.